Assay [1] has as its target CynoSIRPB1 (XP_005568598) (cynomolgus). Put plainly: ELISA, plate coated with SIRP protein. Background: In an ELISA, binding on a coated surface is turned into a signal by an enzyme label.
Assay [2] has as its target cynoSIRPA XPO15313153.1 (cynomolgus). Put plainly: ELISA, plate coated with tagged SIRPA at 1 ug/mL.

No constants are given. Whether binding was seen depends on the method and setting. For part of these data: Binding can be weak; no strength is given.

Binding data for 2 molecules are collected here from patent US20240301071A1.

B1: anti-SIRPA antibody 9C2 (antibody, V domains shown)
VH: EFQLQQSGAELVKPGASVKISCKASGYSLTGYNMNWVKQSRGKSLEWIGNINPHYGSSTYNQNFKDKATLTVDKSSSAAYMQFNSLTSEDSAVYYCAREGYDGVFDYWGQGTTLTVSS
VL: QIVLSQSPAILSASPGEKVTMTCRASSSVSYMHWYQQKPGSSPKPWIYVTSNLASGVPTRFSGSGSGTSYSLTISRVEAEDAATYYCQQWSSNPRTFGGGTKLEIK
For the molecule B1, the binding result in assay [1] is “no binding”.

B2: mouse anti-SIRPA antibody m3F9 (antibody, mouse IgG1, V domains shown)
VH: EVKLVESGGGLVKPGGSLKLSCAASGFTFSSYAMSWVRQTPEKRLEWVATISDYGGSYTYYPDSVKGRFTISRDNAKYTLYLQMSSLRSEDTALYYCARPPYDDYYGGFAYWGQGTLVTVSA
VL: DIVLTQSPASLAVSLGQRATISCRASKSVSSSGYSYMHWYQQKPGQPPKLLIYLASNLESGVPARFSGSGSGTDFTLNIHPVEEEDAATYYCQHNRELPCTFGGGTKLEIK
Take B2: the binding result in assay [2] was “binds”; in assay [1], “no binding”.
